The supplement of paper PMC10849652
The other results are listed elsewhere or left out.

Amino acid sequences for entries named in this document (tags omitted). A change or cut given only in a name is not applied to a line headed by its entry.
UniProt Q96EY1: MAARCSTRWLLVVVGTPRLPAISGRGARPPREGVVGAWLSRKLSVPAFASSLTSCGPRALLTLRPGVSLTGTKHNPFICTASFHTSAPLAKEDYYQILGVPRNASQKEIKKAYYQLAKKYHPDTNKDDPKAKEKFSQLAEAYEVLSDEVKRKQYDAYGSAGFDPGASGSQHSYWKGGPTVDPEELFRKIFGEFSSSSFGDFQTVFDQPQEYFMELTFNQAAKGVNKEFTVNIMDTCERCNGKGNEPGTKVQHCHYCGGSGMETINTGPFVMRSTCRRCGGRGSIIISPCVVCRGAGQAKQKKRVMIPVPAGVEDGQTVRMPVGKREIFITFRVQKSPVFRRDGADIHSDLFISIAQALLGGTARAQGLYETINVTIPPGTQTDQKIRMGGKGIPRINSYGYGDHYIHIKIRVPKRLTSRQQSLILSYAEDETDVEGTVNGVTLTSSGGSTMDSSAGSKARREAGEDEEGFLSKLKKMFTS
UniProt Q9Y485, whole entry, looked up: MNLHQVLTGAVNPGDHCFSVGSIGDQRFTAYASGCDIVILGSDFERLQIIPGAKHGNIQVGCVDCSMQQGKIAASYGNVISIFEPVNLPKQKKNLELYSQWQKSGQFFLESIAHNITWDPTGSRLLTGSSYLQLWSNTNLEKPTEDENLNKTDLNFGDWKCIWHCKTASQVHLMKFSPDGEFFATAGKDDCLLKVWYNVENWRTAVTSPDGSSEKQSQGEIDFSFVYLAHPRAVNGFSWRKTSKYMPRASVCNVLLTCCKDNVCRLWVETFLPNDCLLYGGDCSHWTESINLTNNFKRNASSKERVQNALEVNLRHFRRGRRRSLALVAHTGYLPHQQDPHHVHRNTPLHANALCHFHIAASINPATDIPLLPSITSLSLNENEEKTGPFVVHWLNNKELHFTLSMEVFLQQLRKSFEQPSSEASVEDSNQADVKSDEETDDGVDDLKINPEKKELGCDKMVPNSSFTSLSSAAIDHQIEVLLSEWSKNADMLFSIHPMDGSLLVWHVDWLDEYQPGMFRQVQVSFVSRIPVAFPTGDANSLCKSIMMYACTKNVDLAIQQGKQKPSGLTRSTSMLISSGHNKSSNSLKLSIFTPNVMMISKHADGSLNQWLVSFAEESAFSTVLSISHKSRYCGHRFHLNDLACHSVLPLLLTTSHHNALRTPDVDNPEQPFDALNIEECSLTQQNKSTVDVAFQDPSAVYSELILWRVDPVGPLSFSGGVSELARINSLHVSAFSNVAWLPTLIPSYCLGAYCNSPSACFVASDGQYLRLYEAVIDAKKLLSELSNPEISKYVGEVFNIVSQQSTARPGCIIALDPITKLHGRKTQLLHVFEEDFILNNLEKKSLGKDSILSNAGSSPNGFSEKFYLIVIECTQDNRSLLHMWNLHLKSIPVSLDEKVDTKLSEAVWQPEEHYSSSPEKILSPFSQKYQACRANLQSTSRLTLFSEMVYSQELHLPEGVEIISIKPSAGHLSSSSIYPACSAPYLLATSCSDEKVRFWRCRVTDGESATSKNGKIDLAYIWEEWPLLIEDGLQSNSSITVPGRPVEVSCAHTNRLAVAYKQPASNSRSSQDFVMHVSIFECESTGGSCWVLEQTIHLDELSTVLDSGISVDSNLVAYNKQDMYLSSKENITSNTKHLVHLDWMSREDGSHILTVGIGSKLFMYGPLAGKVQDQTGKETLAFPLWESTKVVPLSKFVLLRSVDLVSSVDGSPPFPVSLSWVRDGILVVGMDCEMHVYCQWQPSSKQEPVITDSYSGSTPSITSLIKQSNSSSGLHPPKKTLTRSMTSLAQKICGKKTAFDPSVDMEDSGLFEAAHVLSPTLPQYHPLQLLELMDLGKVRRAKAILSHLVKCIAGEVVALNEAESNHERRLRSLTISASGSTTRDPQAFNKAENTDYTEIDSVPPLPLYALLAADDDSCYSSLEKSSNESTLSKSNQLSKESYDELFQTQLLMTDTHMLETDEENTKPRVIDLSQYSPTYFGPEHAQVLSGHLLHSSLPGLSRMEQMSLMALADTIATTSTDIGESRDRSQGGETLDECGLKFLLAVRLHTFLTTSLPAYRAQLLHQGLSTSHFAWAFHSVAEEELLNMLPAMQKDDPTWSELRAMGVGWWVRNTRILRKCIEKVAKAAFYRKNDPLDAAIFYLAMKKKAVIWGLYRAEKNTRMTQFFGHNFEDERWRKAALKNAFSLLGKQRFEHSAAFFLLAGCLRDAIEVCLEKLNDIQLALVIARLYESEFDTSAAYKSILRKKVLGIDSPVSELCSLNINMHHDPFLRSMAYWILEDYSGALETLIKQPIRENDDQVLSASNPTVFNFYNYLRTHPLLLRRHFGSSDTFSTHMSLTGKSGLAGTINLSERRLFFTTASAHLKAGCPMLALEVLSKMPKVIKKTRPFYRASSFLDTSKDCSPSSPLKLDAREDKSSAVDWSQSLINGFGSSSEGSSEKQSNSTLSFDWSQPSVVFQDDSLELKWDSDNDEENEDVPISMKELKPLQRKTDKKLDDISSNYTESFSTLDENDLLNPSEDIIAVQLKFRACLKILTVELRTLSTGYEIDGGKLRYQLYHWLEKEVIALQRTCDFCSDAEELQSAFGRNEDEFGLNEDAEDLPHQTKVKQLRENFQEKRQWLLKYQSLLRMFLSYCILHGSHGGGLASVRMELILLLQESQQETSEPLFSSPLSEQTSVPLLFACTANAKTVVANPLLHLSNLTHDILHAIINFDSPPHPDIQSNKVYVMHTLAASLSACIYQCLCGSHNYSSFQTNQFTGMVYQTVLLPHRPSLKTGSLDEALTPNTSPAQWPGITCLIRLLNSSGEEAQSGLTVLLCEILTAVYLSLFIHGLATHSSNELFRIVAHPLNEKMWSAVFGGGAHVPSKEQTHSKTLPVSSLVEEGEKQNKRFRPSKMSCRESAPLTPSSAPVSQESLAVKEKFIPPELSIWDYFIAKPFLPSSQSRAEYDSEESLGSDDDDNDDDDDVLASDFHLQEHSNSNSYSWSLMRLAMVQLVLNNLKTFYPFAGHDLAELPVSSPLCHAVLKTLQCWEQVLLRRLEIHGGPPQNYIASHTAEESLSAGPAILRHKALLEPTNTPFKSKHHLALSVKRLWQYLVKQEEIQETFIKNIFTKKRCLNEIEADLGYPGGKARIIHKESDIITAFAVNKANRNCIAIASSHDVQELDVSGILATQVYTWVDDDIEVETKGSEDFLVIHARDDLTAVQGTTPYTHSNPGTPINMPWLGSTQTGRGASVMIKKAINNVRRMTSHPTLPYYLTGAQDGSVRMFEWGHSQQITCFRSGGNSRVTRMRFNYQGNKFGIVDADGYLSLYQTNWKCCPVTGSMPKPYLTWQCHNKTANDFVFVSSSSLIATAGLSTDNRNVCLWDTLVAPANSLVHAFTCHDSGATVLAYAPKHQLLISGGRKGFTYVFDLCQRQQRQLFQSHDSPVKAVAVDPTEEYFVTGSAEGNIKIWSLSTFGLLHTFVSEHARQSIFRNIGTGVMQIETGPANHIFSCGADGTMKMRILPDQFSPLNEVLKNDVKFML
UniProt Q86SQ9: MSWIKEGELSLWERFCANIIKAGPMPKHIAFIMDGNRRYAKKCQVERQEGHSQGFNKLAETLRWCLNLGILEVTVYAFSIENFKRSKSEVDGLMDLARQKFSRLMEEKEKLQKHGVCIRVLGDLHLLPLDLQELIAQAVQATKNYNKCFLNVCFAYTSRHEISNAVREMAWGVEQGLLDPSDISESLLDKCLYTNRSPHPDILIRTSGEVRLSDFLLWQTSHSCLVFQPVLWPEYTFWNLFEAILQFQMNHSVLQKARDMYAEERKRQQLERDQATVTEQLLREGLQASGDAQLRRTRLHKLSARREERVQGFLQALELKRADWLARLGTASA
UniProt Q8TF46, whole entry, looked up: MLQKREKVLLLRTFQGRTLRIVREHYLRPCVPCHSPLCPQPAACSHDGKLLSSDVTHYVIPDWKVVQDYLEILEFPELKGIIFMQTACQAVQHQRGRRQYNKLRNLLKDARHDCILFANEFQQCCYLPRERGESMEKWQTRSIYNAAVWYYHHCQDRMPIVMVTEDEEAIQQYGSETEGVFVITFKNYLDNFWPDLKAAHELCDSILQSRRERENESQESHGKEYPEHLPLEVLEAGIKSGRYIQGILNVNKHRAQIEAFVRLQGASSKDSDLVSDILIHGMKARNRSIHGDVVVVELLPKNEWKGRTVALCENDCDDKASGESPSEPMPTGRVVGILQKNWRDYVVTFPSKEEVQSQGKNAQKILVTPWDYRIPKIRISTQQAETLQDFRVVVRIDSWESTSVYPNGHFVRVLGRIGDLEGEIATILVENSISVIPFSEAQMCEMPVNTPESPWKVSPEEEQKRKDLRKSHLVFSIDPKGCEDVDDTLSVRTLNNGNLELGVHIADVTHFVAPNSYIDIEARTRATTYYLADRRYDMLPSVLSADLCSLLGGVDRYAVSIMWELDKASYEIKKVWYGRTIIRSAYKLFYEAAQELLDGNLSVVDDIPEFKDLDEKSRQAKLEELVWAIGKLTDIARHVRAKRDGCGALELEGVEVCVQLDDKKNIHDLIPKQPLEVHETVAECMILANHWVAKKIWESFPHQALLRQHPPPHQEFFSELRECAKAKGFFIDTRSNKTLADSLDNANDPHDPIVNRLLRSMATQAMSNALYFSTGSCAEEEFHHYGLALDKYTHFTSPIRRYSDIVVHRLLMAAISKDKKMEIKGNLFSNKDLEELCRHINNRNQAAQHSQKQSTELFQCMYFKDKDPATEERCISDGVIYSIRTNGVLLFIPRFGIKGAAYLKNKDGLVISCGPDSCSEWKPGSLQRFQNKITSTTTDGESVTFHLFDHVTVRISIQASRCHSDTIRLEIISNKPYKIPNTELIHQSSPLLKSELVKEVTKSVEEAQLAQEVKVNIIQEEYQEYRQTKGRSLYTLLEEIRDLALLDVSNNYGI
UniProt Q9BU89: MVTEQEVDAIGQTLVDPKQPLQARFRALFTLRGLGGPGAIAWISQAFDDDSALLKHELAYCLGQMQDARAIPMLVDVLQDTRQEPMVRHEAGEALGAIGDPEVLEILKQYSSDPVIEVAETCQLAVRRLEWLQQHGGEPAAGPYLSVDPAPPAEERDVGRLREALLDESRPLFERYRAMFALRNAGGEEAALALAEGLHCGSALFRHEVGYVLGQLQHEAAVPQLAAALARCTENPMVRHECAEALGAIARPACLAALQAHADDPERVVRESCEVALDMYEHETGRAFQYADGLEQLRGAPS
UniProt Q13574: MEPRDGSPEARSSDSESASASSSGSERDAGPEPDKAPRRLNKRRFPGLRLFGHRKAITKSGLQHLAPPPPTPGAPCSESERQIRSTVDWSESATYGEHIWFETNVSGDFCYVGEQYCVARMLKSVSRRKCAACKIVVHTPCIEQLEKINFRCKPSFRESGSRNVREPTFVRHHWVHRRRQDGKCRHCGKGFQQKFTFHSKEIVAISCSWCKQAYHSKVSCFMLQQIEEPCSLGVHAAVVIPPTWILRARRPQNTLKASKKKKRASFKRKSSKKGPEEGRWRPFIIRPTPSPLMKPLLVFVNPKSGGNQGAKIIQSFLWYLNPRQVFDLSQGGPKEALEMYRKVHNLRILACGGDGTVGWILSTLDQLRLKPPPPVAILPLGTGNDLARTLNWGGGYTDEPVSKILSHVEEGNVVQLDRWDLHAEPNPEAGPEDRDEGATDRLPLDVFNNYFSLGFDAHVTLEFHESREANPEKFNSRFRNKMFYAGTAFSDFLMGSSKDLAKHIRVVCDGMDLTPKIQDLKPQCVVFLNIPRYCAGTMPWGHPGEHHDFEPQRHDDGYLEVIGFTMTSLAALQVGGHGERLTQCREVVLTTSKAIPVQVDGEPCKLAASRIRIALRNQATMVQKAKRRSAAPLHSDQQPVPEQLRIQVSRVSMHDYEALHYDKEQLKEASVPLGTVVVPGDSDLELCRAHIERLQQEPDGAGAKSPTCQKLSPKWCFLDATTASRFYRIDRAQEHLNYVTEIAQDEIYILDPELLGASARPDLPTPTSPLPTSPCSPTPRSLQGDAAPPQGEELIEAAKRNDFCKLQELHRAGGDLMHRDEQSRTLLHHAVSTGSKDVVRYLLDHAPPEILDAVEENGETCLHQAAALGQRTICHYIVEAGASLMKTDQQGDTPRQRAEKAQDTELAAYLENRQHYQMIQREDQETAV

Legend:
Experiment in all cases: log2 fold change, soluble protein after heating vs DMSO (PISA); higher = thermal stabilisation; K562 lysate, 10 uM; active = over 0.2 and 3.5 SD of the protein, either way, in both replicates (recomputed)
[1] = compound: CN1CC[C@H](c2c(O)cc(O)c3c(=O)cc(-c4ccccc4Cl)oc23)[C@H](O)C1 [alvocidib]
Method in brief: (§1)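 Thermal stability, expressed as log-two fold change relative to solvent controls, is given from duplicates. Crude K562 extract in PBS pH 7.4 with 1 mM MgCl2, at 1 mg/mL protein, was treated with 10 μM compound for 30 min and heated in aliquots for 3 min across 48°C-58°C. After pooling, adjustment to 0.5% NP-40 at 4°C and centrifugation at 21,000xg for 90 min, supernatant protein was measured by TMTpro 16plex LC-MS/MS with channel sums equalised.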

[2] = compound: CN1CCc2c(c3ccccc3n2Cc2ccc(C(=O)NO)cc2)C1 [Tubastatin A]
Method in brief: as §1

[3] = compound: CNC(=O)C1=CC=CC=C1NC2=NC(=NC=C2Cl)NC3=C(C=C(C=C3)N4CCOCC4)OC
Method in brief: as §1

[4] = compound: CNC(=O)c1ccc(Nc2ncc(C(F)(F)F)c(NCc3nccnc3N(C)S(C)(=O)=O)n2)cc1 [defactinib]
Method in brief: as §1

[5] = compound: CNc1nc(-c2ccc3c(N)n[nH]c3c2)cc(N2C[C@@H](C(=O)NC3CCCCC3)CC[C@H]2C)n1
Method in brief: as §1

[6] = compound: COC(=O)N[C@@H](C)CNc1nccc(-c2cn(C(C)C)nc2-c2cc(Cl)cc(NS(C)(=O)=O)c2F)n1 [encorafenib]
Method in brief: as §1

[7] = compound: COC(=O)[C@H](CCSC)NC(=O)C1=C(C=C(C=C1)NC[C@H](CS)N)C2=CC=CC=C2
Method in brief: as §1

[8] = compound: COc1cc(Nc2ncc3c(n2)-c2ccc(Cl)cc2C(c2c(F)cccc2OC)=NC3)ccc1C(=O)O [alisertib]
Method in brief: as §1

[9] = compound: COc1cc2nc(-c3cc(F)ccc3O)nc(N[C@@H]3CNC[C@H]3C(C)(C)O)c2cc1OC
Method in brief: as §1

[10] = compound: COc1cc2ncnc(Nc3ccc(F)c(Cl)c3)c2cc1OCCCN1CCOCC1 [gefitinib]
Method in brief: as §1

Measured: log2 fold change

DIAPH1 (UniProt O60610)
inactive: [1] 0.03 | [2] 0 | [3] -0.003 | [4] -0.018 | [5] -0.013 | [6] 0.003 | [7] 0.051 | [8] 0.005 | [9] 0.006 | [10] -0.001

DNAJA3 (UniProt Q96EY1)
inactive: [1] 0.072 | [2] -0.005 | [3] 0.017 | [4] 0.037 | [5] -0.023 | [6] 0.015 | [7] 0.04 | [8] 0.032 | [9] -0.037 | [10] -0.009

DNMT1 isoform 2 (UniProt P26358)
inactive: [1] 0.011 | [2] 0.002 | [3] -0.005 | [4] 0.006 | [5] -0.036 | [6] -0.002 | [7] -0.01 | [8] 0.002 | [9] -0.009 | [10] -0.008

DMXL1 (UniProt Q9Y485)
inactive: [1] 0.01 | [2] -0.014 | [3] 0.019 | [4] 0.024 | [5] 0.012 | [6] 0.055 | [7] -0.015 | [8] -0.031 | [9] 0.009 | [10] 0.038

DNAAF5 (UniProt Q86Y56)
inactive: [1] 0.024 | [2] -0.155 | [3] -0.011 | [4] -0.009 | [5] -0.011 | [6] 0.073 | [7] 0.101 | [8] 0.038 | [9] 0.012 | [10] -0.018

DHDDS isoform 2 (UniProt Q86SQ9)
inactive: [1] 0.031 | [2] -0.037 | [3] -0.034 | [4] 0 | [5] -0.006 | [6] -0.023 | [7] -0.018 | [8] -0.07 | [9] 0.027 | [10] 0.015

DIS3L (UniProt Q8TF46)
inactive: [1] -0.011 | [2] -0.111 | [3] 0.104 | [4] -0.019 | [5] 0.078 | [6] 0.06 | [7] 0.109 | [8] 0.014 | [9] -0.062 | [10] -0.079

2 entries drawn at random from those above, as already listed:
DNAAF5 (UniProt Q86Y56)
inactive: [1] 0.024 | [2] -0.155 | [3] -0.011 | [4] -0.009 | [5] -0.011 | [6] 0.073 | [7] 0.101 | [8] 0.038 | [9] 0.012 | [10] -0.018

DIAPH1 (UniProt O60610)
inactive: [1] 0.03 | [2] 0 | [3] -0.003 | [4] -0.018 | [5] -0.013 | [6] 0.003 | [7] 0.051 | [8] 0.005 | [9] 0.006 | [10] -0.001

Additional results

DIAPH3 (UniProt Q9NSV4)
inactive: [1] 0.041 | [2] -0.195 | [3] 0.004 | [4] -0.024 | [5] -0.027 | [6] 0.118 | [7] 0.085 | [8] 0.056 | [9] -0.015 | [10] 0.06

DIP2A (UniProt Q14689)
inactive: [1] 0.022 | [2] -0.049 | [3] 0.013 | [4] 0.003 | [5] -0.046 | [6] -0.041 | [7] -0.125 | [8] -0.088 | [9] -0.004 | [10] 0.079

DOHH (UniProt Q9BU89)
inactive: [1] 0.041 | [2] 0.002 | [3] 0.037 | [4] 0.077 | [5] 0.082 | [6] 0.041 | [7] 0.051 | [8] 0.002 | [9] -0.051 | [10] -0.089

DHX40 (UniProt Q8IX18)
inactive: [1] 0.017 | [2] -0.1 | [3] -0.01 | [4] 0.107 | [5] -0.047 | [6] 0.022 | [7] 0.04 | [8] -0.078 | [9] -0.025 | [10] 0.051

DHX37 (UniProt Q8IY37)
inactive: [1] -0.116 | [2] -0.057 | [3] -0.095 | [4] -0.048 | [5] -0.163 | [6] 0.057 | [7] 0.082 | [8] -0.019 | [9] 0.012 | [10] 0.02

DGKZ (UniProt Q13574)
inactive: [1] -0.018 | [2] -0.108 | [3] 0 | [4] -0.098 | [5] -0.006 | [6] 0.018 | [7] -0.062 | [8] -0.008 | [9] -0.025 | [10] -0.005
